Assay results from US20220119541A1.
Numbering of substitutions follows the chain as printed. No constants are given. Whether binding was seen depends on the method and setting. Some results given as binding are weak or reduced against the parent protein; the word gives no strength.

Protein sequences, listed by entry. Tags and fused reporters are not part of them. Residues count along the entry.
UniProt Q9Y5U5, residues 26-241: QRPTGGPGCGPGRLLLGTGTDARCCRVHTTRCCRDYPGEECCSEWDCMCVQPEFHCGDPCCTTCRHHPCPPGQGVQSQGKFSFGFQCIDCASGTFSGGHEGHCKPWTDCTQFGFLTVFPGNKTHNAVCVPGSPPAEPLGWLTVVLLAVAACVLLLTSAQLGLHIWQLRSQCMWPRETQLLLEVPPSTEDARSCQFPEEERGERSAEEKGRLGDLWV

B1: 3503-hab070e1 (antibody, V domains shown)
VH: QVQLVESGGGVVQPGRSLRLSCAASGFTFSSYGMHWVRQAPGKGLEWVAVIWYETSNKFYVDSVKGRFTISRDNSKNTLYLQMNSLRAEDTAVYYCARYGASSGWYWYFDLWGRGTLVTVSS
VL: DIQLTQSPSFLSASVGDRVTITCRASQGISSFLAWYQQKPGKAPKLLIYAASTLQSGVPSRFSGSGSGTEFTLTISSLQPEDFATYYCQQLNSYPFTFGQGTKLEIK
B2: 3503-hab064 (antibody, V domains shown)
VH: B1 VH with F59Y, V61A, S85N, A101G, S102N
VL: B1 VL with K42T, Y87C
B3: 3503-hab070 (antibody, V domains shown)
VH: B1 VH
VL: B1 VL with Y87C
B4: 3503-mAb064 (antibody, V domains shown)
VH: B1 VH with F59Y, V61A, S85N, A101G, S102N
VL: B1 VL with K42T, Y87C
B5: 3503-mAb070 (antibody, V domains shown)
VH: B1 VH
VL: B1 VL with Y87C

Target: human GITR (full length, on cells) (human) (UniProt Q9Y5U5)
Assay: flow cytometry (FACS) on spleen cells of humanized B-hGITR mice

binding	Binder
binds	B1

Target: human GITR (full length, on cells) (human) (UniProt Q9Y5U5)
Assay: FACS on 293F-hGITR cells, MFI [panel A]

binding	Binder
binds	B2
binds	B3
binds	B1

Target: human GITR (full length, on cells) (human) (UniProt Q9Y5U5)
Assay: flow cytometry (FACS) on 293F-hGITR cells

binding	Binder
binds	B2
binds	B3
binds	B4
binds	B5
binds	B1
